Measurements published in patent US12465658B2, “Eye drop composition” (Aratana Therapeutics, Inc., priority 2012, dated 2025).
The name of at least one read-out is uncertain.

Assay: Solubility of A-5021 by slurry experiments (24 h equilibration, filtration, HPLC of filtrate)
Format: physicochemical
Procedure: In order to determine the solubility of A-5021 (i.e. 2-amino-9-[[(1S,2R)-1,2-bis(hydroxymethyl)cyclopropyl]methyl]-1,9-dihydro-6H-Purin-6-one), a first series of 33 slurry experiments was performed. Within these experiments a set of 33 different systems (varying in i.e. buffers, co-solvents, solubilizing agents) were considered. The following six buffers were used: HCl buffer (pH 2), phosphate buffer (pH 6.8 and 7.4), tris(hydroxymethyl)aminoethane buffer (pH 9), sodium carbonate/bicarbonate (pH 10.8), and potassium dihydrogen phosphate (pH 12). As co-solvents dimethyl sulfoxide (DMSO), dimethyl acetamide (DMA), N-methyl pyrrolidone (NMP), ethanol (EtOH), and propylene glycol were used with varying concentrations. […] The A-5021 concentration in the filtrates was analyzed by High-Performance Liquid Chromatography (HPLC), from which the corresponding solubility was calculated.
Two different buffer systems, co-solvents, and solubilizing agents were considered with focus on systems that gave the best results as reported above. […] The A-5021 concentration in the filtrates was analyzed by HPLC, from which the corresponding solubility was calculated. […]

SMILES: Nc1nc(O)c2ncn(C[C@]3(CO)C[C@H]3CO)c2n1 [Formulation A-5021, 2-amino-9-[[(1S,2R)-1,2-bis(hydroxymethyl)cyclopropyl]methyl]-1,9-dihydro-6H-Purin-6-one]
- change of solubility with Captisol as solubilizing agent (30% w/v Captisol and 70% w/v buffer, compared with HPBC): further decrease in solubility
- effect on solubility of adding solubilizing agents (hydroxypropyl-cyclodextrin, Captisol, propylene glycol up to 80% v/v) (buffer systems with a pH above 1 1): did improve the solubility
